We go through 58 compounds from PubChem BioAssay AID2685 (National Center for Advancing Translational Sciences (NCATS), 2010).

The other results are listed elsewhere or left out. Further columns of the screen follow, without active or inactive calls. The list favours compounds with an active or inconclusive main result. The note in brackets gives the kind of curve behind each potency; many fits are weak.

This experiment is described as follows: qHTS Assay for Lipid Storage Modulators in Drosophila S3 Cells.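 On cell number change: cells counted by Cell Tracker Red CMTPX staining in the red channel.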 To be noted: BODIPY lipid droplet fluorescence, 18-24 h; for cell number change: measured here: cell count max response, cells fed with added oleic acid. The method in brief:
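Drosophila S3 cells got compounds at several concentrations plus oleic acid (400 uM solution). Laser-scanning cytometry with 488 nm excitation read lipid droplets at 500-530 nm and cells at 575-640 nm. Percent activity was relative to 20 uM Triacsin C.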

The mark [1] stands for this setting: measured here: lipid fluorescence (Fed channel) AC50, cells fed with added oleic acid.
Where [2] appears, read: measured here: cell number channel AC50, cells fed with added oleic acid.

With `CCOC(=O)NC(=O)/C(C#N)=C\c1ccccc1`, under setting [1], the AC50 is 0.58 µM [rising, single point].

In the case of `COc1ccc2c(Cl)c(C(=O)N/N=C/c3ccc4c(c3)OCO4)sc2c1`, the cell number change was -15.9%. Also, the AC50 under setting [1] was 0.0651 µM [falling, partial curve, poor fit].

Regarding `O=C(NCc1ccco1)C1CCC(N2C(=O)C3C4CCC(C4)C3C2=O)CC1` (stereo unspecified), the cell number change is 115%. Besides, the AC50 under setting [2] is 10.3 µM [rising, partial curve]. For the same compound, under setting [1], the concentration at half-maximal activity (AC50) is 18.4 µM [rising, partial curve].

As to `O=C(CSc1nnc(CNC(=O)c2cccs2)o1)NC1CCCCC1`, the cell number change was -17.9%. Also, under setting [2], the AC50 is 0.146 µM [falling, full curve, poor fit].

For the compound `Cc1ccc(S(=O)(=O)N(C)CC(=O)Nc2cccc3c2CCCC3)cc1`, the cell number change is -46.4%. In addition, under setting [2], the AC50 is 5.8 µM [falling, full curve, poor fit].

For `CCN(CC)S(=O)(=O)c1ccc(NC(=O)CSc2cccc[n+]2[O-])cc1`, the cell number change was 29.4%.

`Cc1cc(NC(=O)CSc2nc(C(C)C)nc3c2c(=O)n(C)c(=O)n3C)no1`: the AC50 is, setting by setting: under setting [2], 0.058 µM [rising, full curve, poor fit]; under setting [1], 0.0651 µM [rising, full curve, poor fit].

In the case of `COC(=O)Nc1ccc(S(=O)(=O)NNC(=O)c2c(O)c3ccccc3n(C)c2=O)cc1`, the cell number change turned out to be 32.8%. For the same compound, the AC50 under setting [2] was 5.8 µM [rising, partial curve, poor fit].

Turning to `CC(=O)Nc1cccc(NC(=O)CSc2nnc(NC(=O)c3ccco3)s2)c1`, the cell number change is 20.8%.

`CN(C)c1ccc(/C=N/N(CCO)C2=NS(=O)(=O)c3ccccc32)cc1`: the cell number change is -84.4%. Moreover, the AC50 under setting [2] is 29.1 µM [falling, single point]. Besides, under setting [1], the AC50 is 0.82 µM [falling, single point].

With `COc1ccc(C)cc1S(=O)(=O)Nc1ccccc1`, the AC50 under setting [2] is 3.66 µM [rising, single point].

Regarding `CCCCNC(=O)OC(C)CNC(=O)OC` (stereo unspecified), the cell number change was -33.8%. Under setting [2], the AC50 was 1.03 µM [falling, full curve, poor fit].

Consider `O=C(CSc1ncccn1)c1ccccc1Br`, for which the half-maximal activity concentration (AC50) under setting [1] is 6.51 µM [rising, single point].

On to `CCCN(C(=O)CSc1nnnn1-c1ccccc1OC)C1CCS(=O)(=O)C1` (stereo unspecified), for which the cell number change was -23.3%. Further, the AC50 under setting [1] was 10 µM [falling, partial curve, poor fit].

`COc1ccc(S(=O)(=O)N2CCOC2CNC(=O)C(=O)NCCN2CCOCC2)cc1` (stereo unspecified): the cell number change is -4.17%. Moreover, the AC50 under setting [2] was 0.058 µM [falling, full curve, poor fit]. Besides, the half-maximal activity concentration (AC50) under setting [1] is 6.51 µM [falling, single point].

In the case of `C=CCNC(=O)COC(=O)COc1ccc(Cl)cc1`, the cell number change is -47.5%. Further, the AC50 under setting [2] was 29.1 µM [falling, single point]. Further, the AC50 under setting [1] is 32.6 µM [falling, partial curve, poor fit].

Turning to `CCOc1ccc(S(=O)(=O)n2nc(C)cc2C)c2ccccc12`, the half-maximal activity concentration (AC50) under setting [1] was 2.59 µM [rising, partial curve].

Consider `Cn1nc(Oc2nc(N3CCOCC3)nc(N3CCOCC3)n2)ccc1=O`, for which the cell number change was -14%. Also, the AC50 under setting [2] was 0.92 µM [falling, full curve, poor fit]. Under setting [1], the AC50 was 1.16 µM [falling, partial curve].

On to `O=C(O)c1cc(S(=O)(=O)O)ccc1O`, for which the cell number change was -50.5%. Further, the AC50 under setting [2] was 23.1 µM [falling, single point]. Besides, the half-maximal activity concentration (AC50) under setting [1] was 29.1 µM [falling, single point].

In the case of `O=C(NNC(=O)c1ccc(F)cc1F)c1ccc2c(c1)OCO2`, the AC50 under setting [1] was 0.731 µM [falling, single point].

For `Cc1cc(NS(=O)(=O)c2ccc(NC(=O)CSc3nnc(-c4ccco4)n3Cc3ccco3)cc2)nc(C)n1`, the cell number change was -66.7%. Under setting [2], the concentration at half-maximal activity (AC50) was 29.1 µM [falling, single point]. In addition, the AC50 under setting [1] is 1.84 µM [falling, partial curve, poor fit].

Regarding `CCOc1ccc(S(=O)(=O)N2CCCCCC2)cc1`, the cell number change was determined as 78.4%. The concentration at half-maximal activity (AC50) under setting [2] is 23.1 µM [rising, single point].

In the case of `CCOC(=O)c1ccccc1NS(=O)(=O)c1ccc(OCC)cc1`, the AC50 is 4.61 µM [rising, single point] under setting [2] and 6.51 µM [rising, single point] under setting [1].

With `O=C(c1ccco1)N1CCN(C(=O)c2ccc(CS(=O)c3cccc(Cl)c3)o2)CC1` (stereo unspecified), the cell number change is -17.4%. For the same compound, the AC50 under setting [1] was 29.1 µM [rising, single point].

`COc1cccc(-c2nc(CSCC(=O)NCC3CCCO3)c(C)o2)c1` (stereo unspecified): the cell number change turned out to be 13.1%. In addition, the AC50 under setting [1] was 14.6 µM [rising, single point].

On to `CCOc1cc2[nH]c(=O)n(CCCCC(=O)NCc3ccco3)c(=O)c2cc1OCC`, for which the cell number change was -24.5%. Further, the AC50 under setting [1] is 9.2 µM [falling, partial curve].

Take `O=C1NCC(O)=C1C=NCCCO`: the cell number change amounted to 0.752%. For the same compound, the AC50 under setting [1] is 4.61 µM [falling, partial curve].

`Oc1cc2c(cc1CN1CCN(c3ncccn3)CC1)OCO2`: the cell number change is -6.65%.

With `COC(=O)Cc1csc(Nc2ccccc2)n1`, the cell number change turned out to be 6.59%.

On to `c1ccc2c(c1)nc(Nc1ccc(N3CCCCC3)cc1)c1nncn12`, for which the cell number change was -45.6%. Besides, the AC50 under setting [2] was 32.6 µM [falling, single point]. Further, under setting [1], the AC50 was 29.1 µM [falling, single point].

For the compound `COc1cccc(NC(=O)CSc2nnc(-c3cc(-c4ccccn4)nc4ccccc34)o2)c1`, the half-maximal activity concentration (AC50) reads like this: under setting [2], 0.58 µM [rising, single point]; under setting [1], 29.1 µM [falling, single point].

In the case of `Cc1ccc(SCCC(=O)Nc2c(C)n(C)n(-c3ccccc3)c2=O)cc1`, the AC50 under setting [1] was 0.092 µM [falling, full curve, poor fit].

As to `COc1ccc(Nc2nc(C)cc(C)c2C(N)=O)cc1OC`, the cell number change was 17.5%. Besides, the AC50 under setting [2] was 2.31 µM [rising, partial curve, poor fit]. Also, the AC50 under setting [1] was 0.58 µM [rising, single point].

Take `S=C(NCc1ccccc1)NNc1nc2ccccc2[nH]1`: the cell number change was -35.8%.

As to `N#Cc1c(Cl)c(Cl)c2nnc(-c3ccc(Br)cc3)n2c1Cl`, the cell number change was found to be 17.8%. Also, the half-maximal activity concentration (AC50) under setting [1] is 0.651 µM [rising, full curve, poor fit].

`CC1=C(C(=O)Nc2cc(C(=O)NCCC(C)C)ccc2C)SCCO1`: the cell number change came out at 32.4%.

`COc1cc(C(=O)NCCNc2nc3cc(C)ccc3cc2C#N)cc(OC)c1OC`: the cell number change was -19.9%. Further, under setting [1], the AC50 was 20.6 µM [falling, single point].

Turning to `COC(=O)c1sccc1NC(=S)N1CCN(c2cccc(C)c2C)CC1`, the cell number change is 40.2%. In addition, the half-maximal activity concentration (AC50) under setting [2] is 5.8 µM [rising, partial curve, poor fit]. Also, the concentration at half-maximal activity (AC50) under setting [1] was 0.461 µM [rising, partial curve].

Consider `Cc1nc(NC(=O)c2ccc(Br)o2)ccc1Br`, for which the cell number change was found to be 3.31%. In addition, under setting [1], the AC50 is 29.1 µM [rising, partial curve].

As for `Cc1ccc(S(=O)(=O)Nc2ccccc2N2CCOCC2)cc1`, the cell number change amounted to 12.5%. Further, the half-maximal activity concentration (AC50) under setting [2] is 0.259 µM [rising, full curve, poor fit].

As to `Cc1c(/C=N/n2cnnc2)c2ccccc2n1C`, under setting [2], the AC50 is 6.51 µM [rising, single point].

On to `O=c1cc(-c2ccc(Cl)cc2)[nH][nH]1`, for which the cell number change was -73.1%. The AC50 under setting [2] was 29.1 µM [falling, partial curve, poor fit]. Besides, the concentration at half-maximal activity (AC50) under setting [1] is 0.651 µM [falling, single point].

On to `CC(C)(Cc1ccccc1)/[N+]([O-])=C\c1ccc(C(F)(F)F)cc1`, for which the cell number change is -4.75%. For the same compound, the AC50 under setting [2] is 0.517 µM [rising, single point].

For the compound `O=C(COC(=O)CNC(=O)c1ccco1)NCCN1C(=O)CSC1=O`, the cell number change is -10.5%.

Take `O=C(Cn1ccc(NC(=O)OCc2ccccc2)nc1=O)NCCc1c[nH]c2ccccc12`: the cell number change was -26.9%. In addition, the half-maximal activity concentration (AC50) under setting [1] is 29.1 µM [falling, single point].

As to `CC(C)=CC(=O)N1CC[C@@H](N2CCN(c3ccccc3F)CC2)[C@H](O)C1`, the cell number change stood at 2.62%. Moreover, the AC50 under setting [1] was 3.66 µM [rising, full curve].

For the compound `Cc1ccc(-c2csc3ncnc(N4CCN(C(=O)c5ccccc5)CC4)c23)cc1`, the cell number change worked out at 13.5%.

On to `Cc1cc(NC(=O)CSc2nc3ccccc3n2CC(=O)N2CC(C)CC(C)C2)no1` (stereo unspecified), for which the cell number change worked out at 25.8%. In addition, under setting [1], the AC50 is 4.11 µM [rising, full curve].

As to `Cc1ccc(C(=O)NC(=S)Nc2c(C)ccc3nsnc23)cc1`, the cell number change was 11.1%. The half-maximal activity concentration (AC50) under setting [2] is 5.17 µM [falling, single point]. Further, under setting [1], the half-maximal activity concentration (AC50) is 6.51 µM [falling, single point].

`C/C(=N/NS(=O)(=O)c1ccc(CC(C)C)cc1)c1ccncc1`: the cell number change was -32.3%. Also, under setting [2], the AC50 was 1.16 µM [falling, single point].

`O=C(O)c1ccc(NC(=O)C2C3CCC(C3)C2C(=O)O)cc1` (stereo unspecified): the cell number change stood at 6.62%. For the same compound, the half-maximal activity concentration (AC50) under setting [1] was 0.58 µM [falling, full curve].

As to `c1nc2ccc(Cc3ccc4nc[nH]c4c3)cc2[nH]1`, the cell number change was -21.5%. For the same compound, the AC50 under setting [1] is 6.51 µM [rising, single point].

As to `COC(=O)[C@@]1(Cc2ccc(OC)cc2)[C@H]2c3cc(C(=O)N4CCCC4)n(CCc4c[nH]c5ccc(O)cc45)c3C[C@H]2CN1C(=O)c1ccccc1`, the cell number change came out at 9.36%. For the same compound, under setting [2], the AC50 was 0.0326 µM [rising, partial curve, poor fit].

Take `Fc1cccc(/C=N/NC(=S)Nc2ccccc2Cl)c1`: the cell number change worked out at 7.21%. Also, the AC50 under setting [1] was 0.461 µM [rising, partial curve].

Regarding `COc1ccc(CNC(=O)CNS(=O)(=O)c2ccc(Cl)cc2)cc1`, the cell number change was -36.7%. The AC50 under setting [2] was 0.82 µM [falling, full curve, poor fit]. The half-maximal activity concentration (AC50) under setting [1] was 0.731 µM [falling, full curve].

As for `CCOC(=O)c1sc(Nc2nc(C)cc(OC)n2)nc1C`, the cell number change was -39.3%. Also, under setting [2], the AC50 was 29.1 µM [falling, single point]. For the same compound, the concentration at half-maximal activity (AC50) under setting [1] is 29.1 µM [falling, single point].

With `Cc1ccc(Oc2ncc(-c3ccc(Cl)cc3)cn2)cc1`, the cell number change stood at 16%. Also, the AC50 under setting [1] is 25.9 µM [rising, single point].

`O=C(O)c1ccccc1-c1nc2cc(Cl)ccc2c(=O)n1O`: the cell number change was -63.2%. For the same compound, under setting [2], the AC50 is 16.4 µM [falling, partial curve]. Besides, the AC50 under setting [1] was 5.8 µM [falling, full curve, poor fit].
